# PMC7819943, “Rice protein-binding microarrays: a tool to detect cis-acting elements near promoter regions in rice”
# Chains of the proteins cited; added tags and fusions are not shown.
# UniProt Q0JBA9, entry or part of it: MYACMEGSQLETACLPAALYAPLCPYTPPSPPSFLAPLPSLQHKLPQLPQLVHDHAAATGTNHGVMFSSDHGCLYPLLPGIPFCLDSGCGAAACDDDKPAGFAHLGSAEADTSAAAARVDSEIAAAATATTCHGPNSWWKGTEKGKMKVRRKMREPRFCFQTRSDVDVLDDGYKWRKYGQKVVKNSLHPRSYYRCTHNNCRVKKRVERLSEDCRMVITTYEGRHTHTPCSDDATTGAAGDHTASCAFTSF
# This is one part of the list.
# Target: OsWRKY34 (Oryza sativa, UniProt Q0JBA9 1-250)
# Experiment: protein-binding microarray (RPBM); PBS, 2% BSA, 51.3 ng/ul salmon testes DNA, 50 uM zinc acetate, 200 nM TF, 25 C, 1 h; high values mean tight binding
# Conditions: protein: recombinant; tags: N-terminal polyhistidine and DsRed monomer fusion (pET32a); label: CyDye5-dUTP incorporated in the synthesized complementary strand; 3' TTTTT single-stranded linker to array surface; dsDNA, one strand shown
# How it was run: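 Using Ni–NTA, transcription factors fused N-terminally to polyhistidine and DsRed were purified after expression in E. coli BL21-CodonPlus. These were incubated at 200 nM with a blocked, double-stranded custom Agilent array for 1 h at 25 °C in a buffer containing 50 µM zinc acetate, and the array was washed. The binding signal is per-feature fluorescence intensity (arbitrary units) on an Axon 4000B scanner.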
row,Sequence,binding signal
1,GCAGTGACACGTCGACGCGGCGCCCTCGTCTCGTGTGATCCGGAGTCACCTAGTGCAG,8260 fluorescence intensity (a.u.)
2,TTGCGTCTTCCGCTTCCGACCGCGACCCACTCCCACCATTCGGAGTCACCTAGTGCAG,11000 fluorescence intensity (a.u.)
3,GTCCTTTTTCTTTTACGTAAACACGTAAGTTTCATACCACCGGAGTCACCTAGTGCAG,8480 fluorescence intensity (a.u.)
4,ACCGATTGCTACTCCTATTATGGAGATCGCACGCTTTTTCCGGAGTCACCTAGTGCAG,10100 fluorescence intensity (a.u.)
5,AAACTTCTTTCTTTGTACCTAATCATTGGTCAACCCAACTCGGAGTCACCTAGTGCAG,9830 fluorescence intensity (a.u.)
6,TGCTTTCGGCCCATCTCCACCCACACCCGTATCGTCTCTTCGGAGTCACCTAGTGCAG,11300 fluorescence intensity (a.u.)
7,TATCAGCCCAATATTGTACACGACTCCCAAATCGCTTTCTCGGAGTCACCTAGTGCAG,10100 fluorescence intensity (a.u.)
8,ATTTTAATGTATGACGCCGTTGACTTTTTGTCCAACGTTTCGGAGTCACCTAGTGCAG,25600 fluorescence intensity (a.u.)
9,AATCTACACACTCACTAGAAATATACATGTTTGTCCATATCGGAGTCACCTAGTGCAG,8100 fluorescence intensity (a.u.)
10,TGCCTCTTAACTCGTCGCTCTACTTTGCTTGCCACCAACACGGAGTCACCTAGTGCAG,13600 fluorescence intensity (a.u.)
11,ACGTGTGTGTTGTGAGCGCCTGCATTTTTGTAACTTGTTACGGAGTCACCTAGTGCAG,9050 fluorescence intensity (a.u.)
12,GTTTGTCGTACTCCTTTTCTTCTCTATTCTTCTCAGTACTCGGAGTCACCTAGTGCAG,8400 fluorescence intensity (a.u.)
13,TTATTTCCTCACCATTTTCAACTTCTACCTTTCGTTTTTCCGGAGTCACCTAGTGCAG,8260 fluorescence intensity (a.u.)
14,GTTCTTCTCCTTCTTCTTCTTCTTGTTACCTTTAATCCTCCGGAGTCACCTAGTGCAG,11900 fluorescence intensity (a.u.)
15,ATCCATAATGTAAAATTTTACCGTGTCACATCGAATATTACGGAGTCACCTAGTGCAG,9330 fluorescence intensity (a.u.)
16,ACATAATCTGACATTTTTCCTCAATTGATTGATCTTCTGCCGGAGTCACCTAGTGCAG,8120 fluorescence intensity (a.u.)
17,AATTCCCAGTCGGTCGTGCCCTAATCCCTCATTTCCTCTCCGGAGTCACCTAGTGCAG,12300 fluorescence intensity (a.u.)
18,ACTGCATATTGATTTACGTGAATTTTTTTTTGTCTTTTTTCGGAGTCACCTAGTGCAG,11200 fluorescence intensity (a.u.)
19,CTTGGGCCCTCAAAGGTTATCTTTGCTCACTCTTTCTTTTCGGAGTCACCTAGTGCAG,11100 fluorescence intensity (a.u.)
20,GATGGTCAAAGTTATTAAAGTTTGACCTCAACCTTATTCACGGAGTCACCTAGTGCAG,10600 fluorescence intensity (a.u.)
21,TCCATGCACAACCTAATTTCACTAAATTATACCATTTACACGGAGTCACCTAGTGCAG,9550 fluorescence intensity (a.u.)

# Shown as tab-separated lines: entries from further up.
row	Sequence	binding signal
1	GCAGTGACACGTCGACGCGGCGCCCTCGTCTCGTGTGATCCGGAGTCACCTAGTGCAG	8260 fluorescence intensity (a.u.)
5	AAACTTCTTTCTTTGTACCTAATCATTGGTCAACCCAACTCGGAGTCACCTAGTGCAG	9830 fluorescence intensity (a.u.)
7	TATCAGCCCAATATTGTACACGACTCCCAAATCGCTTTCTCGGAGTCACCTAGTGCAG	10100 fluorescence intensity (a.u.)
10	TGCCTCTTAACTCGTCGCTCTACTTTGCTTGCCACCAACACGGAGTCACCTAGTGCAG	13600 fluorescence intensity (a.u.)
11	ACGTGTGTGTTGTGAGCGCCTGCATTTTTGTAACTTGTTACGGAGTCACCTAGTGCAG	9050 fluorescence intensity (a.u.)
12	GTTTGTCGTACTCCTTTTCTTCTCTATTCTTCTCAGTACTCGGAGTCACCTAGTGCAG	8400 fluorescence intensity (a.u.)
16	ACATAATCTGACATTTTTCCTCAATTGATTGATCTTCTGCCGGAGTCACCTAGTGCAG	8120 fluorescence intensity (a.u.)
17	AATTCCCAGTCGGTCGTGCCCTAATCCCTCATTTCCTCTCCGGAGTCACCTAGTGCAG	12300 fluorescence intensity (a.u.)
20	GATGGTCAAAGTTATTAAAGTTTGACCTCAACCTTATTCACGGAGTCACCTAGTGCAG	10600 fluorescence intensity (a.u.)

# More results follow.

row,Sequence,binding signal
1,AGATGTCGTCGACGACCAGGCCAACCTGGCAATGTAAATTCGGAGTCACCTAGTGCAG,9670 fluorescence intensity (a.u.)
2,TTGCTAGTGGGTGTGTTATTCGCCGCCTTTTATCGATCCGCGGAGTCACCTAGTGCAG,12300 fluorescence intensity (a.u.)
3,ACCACCATCCTTCATCACCGCCTCCGTTCCGTTCCCCATGCGGAGTCACCTAGTGCAG,8440 fluorescence intensity (a.u.)
4,CCTTGGTTTTAATTAATTCAATTTCTCGCCTCTTTTCTTCCGGAGTCACCTAGTGCAG,8620 fluorescence intensity (a.u.)
5,TCAACTCAAGGTGTTTTCTGATTGTGGACTGTTTGACCTCCGGAGTCACCTAGTGCAG,9870 fluorescence intensity (a.u.)
6,TCCCGTAGTTCTTCCGTCCCATCGTCGCGCACAATAAAGACGGAGTCACCTAGTGCAG,9720 fluorescence intensity (a.u.)
7,CGCGCTGTGGATTAGGGAGGTGGAGTGGATCAGGACGGGGCGGAGTCACCTAGTGCAG,8080 fluorescence intensity (a.u.)
8,CATCATACAGTAACAGCACAAGCACACACTACACGCACTCCGGAGTCACCTAGTGCAG,8640 fluorescence intensity (a.u.)
9,TTTCCCTTTGTTCATTCTGTTTTCAGCTTATAATTAAGCTCGGAGTCACCTAGTGCAG,8260 fluorescence intensity (a.u.)
10,GAAAACTTTACGTCCCCTGGCCTAAACACTCTTTTAGTTCCGGAGTCACCTAGTGCAG,9430 fluorescence intensity (a.u.)
11,CTACTCCTTCTGCTCCTGCTGACTATCGTGCTCCACCTTTCGGAGTCACCTAGTGCAG,9660 fluorescence intensity (a.u.)
12,TGTTGTCCTGCGTTTTTGACTGTGCTTCTTAAAAAAAAAACGGAGTCACCTAGTGCAG,8210 fluorescence intensity (a.u.)
13,GCTGTGGGTAGGCCGGCGCCGCCGGCCGACGGGTGGGGAGCGGAGTCACCTAGTGCAG,8420 fluorescence intensity (a.u.)
14,TCAATCATACGTTAATACCACCTTATTTTGTGTAAAAATCCGGAGTCACCTAGTGCAG,8260 fluorescence intensity (a.u.)
15,AAAATGCGAGCTACCCATCACCACACGCCACGTACTCATGCGGAGTCACCTAGTGCAG,9180 fluorescence intensity (a.u.)
16,ATATATATATATATATATATATATCATCAATCTTTAGTTCCGGAGTCACCTAGTGCAG,8040 fluorescence intensity (a.u.)
17,GTTGGCTATTTAATTGATTTCCTATACCTCAACAAAGTAACGGAGTCACCTAGTGCAG,9140 fluorescence intensity (a.u.)
18,GCCGCCGTCCTTGGCTCCTCACCTGTTGCCCGCAATTGCCCGGAGTCACCTAGTGCAG,8470 fluorescence intensity (a.u.)
19,TGGGGTGGTTCAAATGTCGACGTGATGGTCATTTTTCTTTCGGAGTCACCTAGTGCAG,16000 fluorescence intensity (a.u.)
20,TGAATTTGAAGCCCCACTTTTTTTGCCATATTTGTCACATCGGAGTCACCTAGTGCAG,8410 fluorescence intensity (a.u.)
21,ATTATATATTTCTGTTGTAGTGATTTTAGCTTGTCATTTACGGAGTCACCTAGTGCAG,12900 fluorescence intensity (a.u.)
